Drawing on patent WO2019024911A1, this text covers binding for one molecule.

Results are given in words; binding and its absence hold for the method and conditions named. Some results given as binding are weak or reduced against the parent protein; the word gives no strength. For some assays here: Where a sequence is shown, tags or fusion partners need not be part of it.

Test [1] has as its target T1, B7-H3 recombinant protein (human B7-H3 with huFc tag, h-B7H3-Fc) (human) (UniProt Q5ZPR3).
T1 sequence (looked up): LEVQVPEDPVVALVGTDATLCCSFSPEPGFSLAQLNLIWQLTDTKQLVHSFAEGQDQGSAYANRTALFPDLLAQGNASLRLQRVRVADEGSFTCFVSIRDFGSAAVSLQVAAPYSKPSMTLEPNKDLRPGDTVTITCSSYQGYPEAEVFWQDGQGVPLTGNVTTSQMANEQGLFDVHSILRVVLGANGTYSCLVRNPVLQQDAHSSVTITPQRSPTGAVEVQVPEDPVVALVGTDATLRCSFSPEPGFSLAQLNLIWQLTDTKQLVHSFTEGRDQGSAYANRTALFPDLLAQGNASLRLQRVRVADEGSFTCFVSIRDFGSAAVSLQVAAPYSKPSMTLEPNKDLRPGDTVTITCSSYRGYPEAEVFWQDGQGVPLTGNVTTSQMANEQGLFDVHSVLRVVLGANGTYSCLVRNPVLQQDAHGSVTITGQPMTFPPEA
Nature of the test: ELISA of hybridoma supernatant on B7-H3 recombinant protein. A general note: An ELISA detects its analyte on a solid surface through an enzyme-linked reagent.

The target of test [2] is T2, human B7H3 on the cell surface (human) (UniProt Q5ZPR3).
T2 sequence: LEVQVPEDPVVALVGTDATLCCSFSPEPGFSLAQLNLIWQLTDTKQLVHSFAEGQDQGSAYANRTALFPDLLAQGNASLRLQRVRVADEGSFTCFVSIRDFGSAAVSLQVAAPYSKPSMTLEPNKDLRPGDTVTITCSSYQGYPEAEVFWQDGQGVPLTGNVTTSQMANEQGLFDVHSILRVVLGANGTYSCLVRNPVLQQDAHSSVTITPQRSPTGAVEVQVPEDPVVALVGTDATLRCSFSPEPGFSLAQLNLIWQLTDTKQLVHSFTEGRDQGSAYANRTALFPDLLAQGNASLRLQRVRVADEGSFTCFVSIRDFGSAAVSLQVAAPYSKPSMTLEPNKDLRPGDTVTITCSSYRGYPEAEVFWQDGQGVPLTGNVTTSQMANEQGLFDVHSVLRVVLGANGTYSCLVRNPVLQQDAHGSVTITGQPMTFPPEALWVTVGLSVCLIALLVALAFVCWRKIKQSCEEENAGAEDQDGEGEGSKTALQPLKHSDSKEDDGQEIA
Put plainly: flow cytometry of hybridoma supernatant on CHO-S cells stably expressing B7-H3 against blank CHO-S cells.

B1: murine monoclonal antibody m1704 (antibody, V domains shown)
VH: EVQLVESGGGLVKSGGSLKLSCAASGFTFSRYGMSWVRQTPEKRLEWVAAISSNGGSIYYPDTVKGRLTISRDNAKNTLYLQMISLRSEDTALYFCTRHYLLFEMDYWGRGTSVTVSS
VL: DIVMTQSQEFMSTTVGDRVYITCKASQNVNTAVAWYQQKPGQSPKLLIFSASNRYTGVPDRFTGSGSGTDFTLTISNVQSEDLAAYFCQQYSSSLTFGAGTKLELK
On to B1, for which the binding result in test [1] and in test [2] was “binds” in each case.
